Test results from the supplement of paper PMC8732350.
Several values for one entry are separate records, joined by “and”; a condition that tells them apart may be missing. Equal entries are not always repeated. Structures can show the parent of a compound that is named as a salt. ± gives the standard deviation of the averaged measurements. Some of the results follow. Most values lie within the scatter of the assay; repeated measurements hardly agree.

System: A549
Test: surface PD-L1 immunofluorescence intensity relative to IFN-gamma-only control (ratio); higher = more PD-L1 expression
Conditions: 10 µM; exposure time 24 h; IFN-gamma 100 ng/mL

SMILES	surface PD-L1 immunofluorescence intensity
Cc1ccsc1/C=C/C1=NCCCN1C [Morantel tartrate]	0.883
CCCCCCCCCCCCCCCCOP(=O)([O-])OCC[N+](C)(C)C [Miltefosine (Hexadecylphosphocholine)]	1.06
CC(Cc1ccc(O)c(O)c1)(NN)C(=O)O [(S)-(-)-Carbidopa]	1.01
CCCn1c(=O)[nH]c2nc(-c3ccc(S(=O)(=O)O)cc3)[nH]c2c1=O	0.944
COc1cc(C(C)=O)ccc1O [Apocynin (Acetovanillone)]	0.992
C[C@]12CC[C@@H]3c4ccc(OS(=O)(=O)O)cc4CC[C@H]3[C@@H]1CCC2=O [Estropipate]	0.95
Cc1ccc(S(=O)(=O)NC(=O)NN2CCCCCC2)cc1 [Tolazamide]	1.02 ± 0.11
COc1cc2c(CCNC(C)=O)c[nH]c2cc1Cl [6-Chloromelatonin]	0.904
Cn1cccc1/C=C1\C(=O)NC(=O)c2ccccc21	0.96
CN1CCN(c2c(F)cc3c(=O)c(C(=O)O)cn4c3c2OCN4C)CC1 [Marbofloxacin]	1.04
C[C@H]1[C@H](C)CC[C@]2(C(=O)O)CC[C@]3(C)C(=CC[C@@H]4[C@@]5(C)C[C@@H](O)[C@H](O)[C@@](C)(CO)[C@@H]5CC[C@]43C)[C@H]12 [Asiatic acid]	1.02 ± 0.093
CCCCCCCCCCCCc1ccc(S(=O)(=O)Nc2nncs2)cc1	1.04 ± 0.038
CC1c2ccccc2CN1CC1=NCCN1 (centres undefined)	1.03
CCN(CC)CCOC(=O)C(c1ccccc1)c1ccccc1 [Adiphenine hydrochloride]	0.878
CNC(=O)c1ccc(C)c(-n2c(C)cc(OCc3ccc(F)cc3F)c(Br)c2=O)c1	1.06
C=CCSCC1Nc2cc(Cl)c(S(N)(=O)=O)cc2S(=O)(=O)N1 (centres undefined) [Althiazide]	1.07
NC(=O)c1cccc(N)c1 [3-Aminobenzamide]	1.03
Cc1ccc(-n2nc(C(C)(C)C)cc2NC(=O)Nc2ccc(OCCN3CCOCC3)c3ccccc23)cc1 [BIRB 796 (Doramapimod)]	1.11
CC(C(=O)O)c1ccc(C(=O)c2ccccc2)s1 (centres undefined) [Tiaprofenic acid]	1.06
CCCCC[C@H](O)/C=C/C=C\CCCCCCCC(=O)O [13(S)-Hydroxy-9Z,11E-octadecadienoic acid]	0.934

SMILES	surface PD-L1 immunofluorescence intensity
CC(=O)N(CC(O)CN(C(C)=O)c1c(I)c(C(=O)NCC(O)CO)c(I)c(C(=O)NCC(O)CO)c1I)c1c(I)c(C(=O)NCC(O)CO)c(I)c(C(=O)NCC(O)CO)c1I (centres undefined) [Iodixanol]	0.957
c1ccc(CN(CC2=NCCN2)c2ccccc2)cc1 [Antazoline hydrochloride]	0.941
Nc1ncnc2n[nH]c(Nc3ccc(F)cc3)c12	0.938
CC[C@H](C)C[C@H](C)CCCCCCCCC(=O)N[C@H]1C[C@@H](O)[C@@H](NCCN)NC(=O)[C@@H]2[C@@H](O)CCN2C(=O)[C@H]([C@H](O)CCN)NC(=O)[C@H]([C@H](O)[C@@H](O)c2ccc(O)cc2)NC(=O)[C@@H]2C[C@@H](O)CN2C(=O)[C@H]([C@@H](C)O)NC1=O [Caspofungin Acetate]	1.01
CN(C)CC/C=C1/c2ccccc2COc2ccc(CC(=O)O)cc21 [Olopatadine hydrochloride]	1
c1nc(CC2CCNCC2)c[nH]1 [Immepip dihydrobromide]	0.94
O=C(O)C1=CCCN(CCON=C(c2ccccc2)c2ccccc2)C1	0.997
C=CCOC(Cn1ccnc1)c1ccc(Cl)cc1Cl (centres undefined) [Enilconazole]	1.04
O=C(/C=C/c1ccc(O)c(O)c1)O[C@@H]1C[C@](O)(C(=O)O)C[C@@H](O)[C@H]1O [Chlorogenic acid]	1.11
C[C@@H]1COC(Nc2ccc3ncnc(Nc4ccc(OCc5nccs5)c(Cl)c4)c3c2)=N1	0.982
N#C/C(=C\c1ccc(O)c(O)c1)C(=O)NCc1ccccc1	1.01 and 0.958
N=C(N)NCCN1CCCCCCC1 [Guanethidine sulfate]	1.06
C#C[C@]1(O)CC[C@H]2[C@@H]3CCC4=CC(=O)CC[C@@H]4[C@H]3CC[C@@]21CC [Norgestrel-(-)-D]	1.08
C#C[C@]1(O)CC[C@H]2[C@@H]3CCC4=CC(=O)CC[C@@H]4[C@H]3CC[C@@]21CC [Levonorgestrel (Levonelle)]	0.947
CC(CN(C)C)CN1c2ccccc2Sc2ccccc21 (centres undefined) [Trimeprazine tartrate]	0.932
CC1(C)[C@@H](OC(=O)CCC(=O)O)CC[C@]2(C)[C@H]3C(=O)C=C4[C@@H]5C[C@@](C)(C(=O)O)CC[C@]5(C)CC[C@@]4(C)[C@]3(C)CC[C@@H]12 [Carbenoxolone disodium salt]	0.963
CCCCCCCCCCCCCCCC(=O)C1=C(O)[C@@H](CO)OC1=O	1.06
Cc1cc(C)c(S(=O)(=O)Nc2cccc(C(F)(F)F)c2)c(C)c1	1.01
CCCOc1ccc(C(=O)OCCN(CC)CC)cc1N [Proparacaine hydrochloride]	0.994

Look-ups from the list.
Entry of C#C[C@]1(O)CC[C@H]2[C@@H]3CCC4=CC(=O)CC[C@@H]4[C@H]3CC[C@@]21CC [Levonorgestrel (Levonelle)] under surface PD-L1 immunofluorescence intensity: 0.947
Entry of O=C(/C=C/c1ccc(O)c(O)c1)O[C@@H]1C[C@](O)(C(=O)O)C[C@@H](O)[C@H]1O [Chlorogenic acid] under surface PD-L1 immunofluorescence intensity: 1.11
Entry of N=C(N)NCCN1CCCCCCC1 [Guanethidine sulfate] under surface PD-L1 immunofluorescence intensity: 1.06
